Measured values taken from patent US5767085A, “Compounds with growth hormone releasing properties” (Novo Nordisk A/S, priority 1993, dated 1998).
Not every detail of the peptide structures is certain; ends, links or a residue may be inferred. Where a SMILES comes first, the peptide text is derived from it. [ ]: non-standard residue; d: D form. The star is where a group is joined. d2Nal = N[C@H](Cc1ccc2ccccc2c1)C(=O)O; NHPhenethyl = c1ccc(CCN*)cc1; Aib = CC(C)(N)C(=O)O

System: rat pituitary cells
Assay: In-vitro GH release assay using rat pituitary cells (rGH measured by SPA)
Type: cell-based
Conditions: GH secretion from cultured male rat anterior pituitary cells, 15 min stimulation
Procedure: An in-vitro assay using rat pituitary cells was established to study the effect of different GH secretagogues. The mixed pituitary cell culture was isolated from the anterior pituitary of male rats and cultured for 3 days. After washing the cells were stimulated for 15 min and the amount of GH secreted measured in the culture supernatant. The isolation of rat pituitary cells was a modification of 0. Sartor et al., Endocrinolog 116, 1985, pp. 952-957. Pituitaries were discharged from 250 g male Sprague-Dawley rats after decapitation. The neurointermediate lobes were removed and the remainder was placed in Grey's medium supplemented with 0.25% glucose, 2× non essential amino acid and 1% BSA (isolation buffer). The glands were cut into small pieces and transferred to a flask containing 3 ml isolation buffer+11.5 mg trypsin and 1000 μg DNase and incubated for 35 min at 37° C., 95% ° 2 and 70 rotations per min. The fragments were washed 3 times by sedimentation in isolation buffer and aspirated into single cells by using a pasteur pipet. After dispersion the cells were filtered though a nylon filter (160 jum) to remove undigested tissue. The cells were washed 3 times with isolation buffer supplemented with trypsin inhibitor (0.75 mg/ml) and resuspended in culture medium (DMEM supplemented with 25 mM HEPES, 4mM Glutamine, 0.75% sodium bicarbonate, 2.5% FCS, 3% horse serum, 10% rat serum, 1 nM T3 and 40 gg/L dexamethasone) to a density of 2×10^5 cells/ml. The cells were seeded into microtiter plates, 200 μl/well and cultured for 3 days at 37° C.and 8% CO2. Following the culture period the cells were washed twice with stimulation buffer (HBSS supplemented with 1% BSA, 0.25% D-glucose and 25 mM HEPES) and preincubated for 1 hour. The buffer was then removed and new stimulation buffer containing the peptide was added and the plates were incubated for 15 min at 37° C.and 5% CO2. The medium was collected and analyzed for rat growth hormone (rGH) content in a scintillation proximity assay (SPA) as follows (SPA, essentially as described in U.S. Pat. No. 4,568,649, Hart and […], Mol.Immunol. 16, 1979, pp. 265-269, or Udenfriend et al., Proc.Natl.Acad.Sci. USA 82, 1985, pp. 8672-8676). The rGH assay was performed in OptiPlates (96-well plates) suitable for direct counting in a […] TopCount (β-scintillation counter). Assay Protocol: 40 μl buffer 10 μl sample (incubated stimulation buffer) […] 50 μl rabbit anti-rGH 50 μl SPA reagent (anti-rabbit antibody) The plates are sealed and placed on a plate shaker for 30 minutes followed by 10 hours of incubation and settling at 10-15° C.and counting. In the SPA, rGH bound to an anti-GH rabbit antibody (primary antibody) is reacted with a second antibody bound to fluomicrospheres (SPA Type II RIA available from Amersham). […]

| Compound | EC50 [nM] | Emax (% of GHRP-6) |
| --- | --- | --- |
| CC(C)(N)C(=O)N[C@@H](Cc1c[nH]cn1)C(=O)N[C@H](Cc1ccc2ccccc2c1)C(=O)NCCc1ccccc1 [Example 104, (2-(H--Aib--His--D-2Nal-NH)ethyl)benzene] (H-[Aib]-His-[d2Nal]-NHPhenethyl) | 58 | 85 % of GHRP-6 |
| NCCCC[C@@H](CO)NC(=O)[C@@H](Cc1ccccc1)NC(=O)[C@@H](Cc1ccc2ccccc2c1)NC(=O)c1cccc(CN)c1 [Example 76, (2S)-((3-Aminomethylbenzoyl)-D-2Nal-D--Phe--NH)-6-aminohexanol] | 26 | 65 % of GHRP-6 |
